Results: PubChem BioAssay AID493014 (National Center for Advancing Translational Sciences (NCATS), 2011)
The list shows a part of the results. Further columns of the screen follow, without active or inactive calls. Most of these compounds were active or inconclusive in the main read-out, so they are no random draw. The note in brackets gives the kind of curve behind each potency; many fits are weak.

Assay: qHTS Assay to Find Inhibitors of Chronic Active B-Cell Receptor Signaling
Conditions: ABC-DLBCL IkBa-CBG/CBR reporter, luminescence ratio (green luciferase fused to IkBa over red control in TMD8 lymphoma cells), 4 h
How it was run: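 Doxycycline induced both beetle luciferases in TMD8 lymphoma cells; IKK-driven degradation limits the IkappaBalpha-fused green signal, while red luminescence normalises for cell number and nonspecific effects. Compounds tested up to 46 uM, 4 hrs.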

[1] = measured here: IkBa-CBG green luminescence
[2] = measured here: CBR red luminescence, cell number

Compound	AC50 [1]	AC50 [2]
CCOC(=O)/C(C#N)=C/c1c(OCC)n(CC)c2ccccc12	18.4 µM [rising, partial curve, poor fit]	
CCOC(=O)C1=C(N)Oc2c(oc(CO)cc2=O)C1c1ccc(F)c(F)c1 (stereo not given)		7.08 µM [falling, partial curve, poor fit]
COCCNC(=O)c1ccc(C)c(S(=O)(=O)Nc2ccc(C)cc2)c1		0.116 µM [rising, full curve]
COc1ccccc1OCCNc1cc(N2CCOCC2)ccc1[N+](=O)[O-]		6.51 µM [rising, full curve, poor fit]
CCOC(=O)CSC1=C(C#N)C(c2sccc2C)CC(=O)N1 (stereo not given)	12.6 µM [falling, partial curve]	6.31 µM [rising, partial curve]
COc1ccc(C(=O)OCc2c(F)cccc2Cl)cc1S(=O)(=O)N1CCOCC1		1.46 µM [rising, full curve]
N#C/C(=C/c1ccc(F)cc1)S(=O)(=O)c1ccccc1		35.5 µM [falling, partial curve, poor fit]
N#CC1=C2SCC(O)(c3ccccc3)N2C(=O)CC1c1ccccc1 (stereo not given)	11.2 µM [falling, partial curve]	
N#C/C(=C\c1ccc(F)c(Br)c1)C(=O)NC1CC1		3.98 µM [rising, full curve, poor fit]
CCOC(=O)c1cc(-c2ccc3c(c2)OCCO3)n[nH]1		11.2 µM [falling, single point]
COc1ccc(C2=NN(C(=O)c3cccs3)C(c3ccccc3O)C2)cc1 (stereo not given)		35.5 µM [falling, single point]
Cc1cccc(C(=O)N[C@H](C(=O)Nc2ccc(C)c(S(=O)(=O)N(C)C)c2)C(C)C)c1		2.82 µM [rising, full curve, poor fit]
Cc1ccc(S(=O)(=O)N2CCN(C(=O)CSc3nc4ccccc4o3)C2)cc1		10 µM [falling, partial curve]
O=C(Nc1nccs1)c1cc(S(=O)(=O)N2CCOCC2)ccc1Cl		0.13 µM [falling, full curve, poor fit]
COc1cc(/C=C2\CCC/C(=C\c3ccc(O)c(OC)c3)C2=O)ccc1O		35.5 µM [falling, single point]
O=C(CSc1ncccc1-c1nc2ccccc2[nH]1)N1CCc2ccccc21		3.66 µM [falling, partial curve]
N#CC(C#N)=C(Nc1ccc(F)cc1)SCc1cccc(F)c1		14.6 µM [falling, single point]
COc1ccccc1-n1c(SCC(=O)N2CCCCC2)nc(O)c(Cc2ccccc2)c1=O		35.5 µM [falling, single point]
O=C(CCl)N1CCCC1c1ccc2c(c1)OCCO2 (stereo not given)		35.5 µM [falling, partial curve, poor fit]
CC(=O)NNC(=S)NC(=O)c1cccc([N+](=O)[O-])c1		29.1 µM [rising, single point]
COc1ccc(CCNC(=O)CSc2nc(N)c(C#N)c(-c3cccs3)c2C#N)cc1OC		8.91 µM [falling, partial curve, poor fit]
Cn1ccnc1SCC(=O)Nc1ccc(Cl)cn1		11.2 µM [falling, partial curve, poor fit]

Compound	AC50 [1]	AC50 [2]
Cc1ccc(C)c(-n2c(-c3csc(C)c3C)n[nH]c2=S)c1		29.1 µM [rising, single point]
Cc1ccc(N(Cc2cc3ccccc3[nH]c2=O)C(=O)c2ccco2)c(C)c1		0.058 µM [falling, full curve, poor fit]
Cc1ccccc1OCC(=O)N/N=C1\CCOc2c(C)cccc21		0.562 µM [rising, full curve, poor fit]
O=C(CSCC(=O)N1CCCCC1)Nc1nc(-c2ccccc2)c(-c2ccccc2)s1		20.6 µM [falling, partial curve, poor fit]
CNC(=O)CSc1nnc(-c2cccs2)o1		29.1 µM [rising, partial curve, poor fit]
CCOC(=O)c1ccc(N2C(=O)CC(Nc3ccc(O)cc3)C2=O)cc1 (stereo not given)		35.5 µM [falling, single point]
CCCC(=O)N(c1ccc2oc(C)c(C(C)=O)c2c1)S(=O)(=O)c1ccc(C)cc1		3.98 µM [rising, partial curve, poor fit]
CSc1ccc(NC(=O)N2CCN(c3nc4ccccc4s3)CC2)cc1		0.13 µM [rising, full curve, poor fit]
CCCc1nc2nc(C)c(NS(=O)(=O)c3ccc(C4CCCCC4)cc3)c(=O)n2[nH]1		3.98 µM [rising, partial curve, poor fit]
O=C(N/N=C/c1ccc(O)cc1O)/C(=C/c1ccccc1)CCO		2.91 µM [falling, full curve]
COc1ccc(/C=C2\SC(=S)N(CCC(=O)Nc3ccc(O)cc3)C2=O)cc1		10 µM [falling, partial curve]
Cc1cc(NC(=O)c2ccccc2)nc2c1c(=O)oc1ccccc12		6.31 µM [falling, partial curve]
COc1ccc(NC(=O)C(=O)NNC(=O)c2cccs2)cc1		14.6 µM [falling, partial curve]
CC(=O)c1sc2nsc(SCCN3CCCCC3)c2c1N		17.8 µM [falling, single point]
COc1ccc(Nc2nnc(-c3ccc(C(N)=O)cc3)c3ccccc23)cc1		15.8 µM [falling, partial curve, poor fit]
COc1cc(OC)cc(C(=O)NNC(=O)c2cc3ccccc3cc2O)c1		0.501 µM [falling, full curve, poor fit]
CCn1c(=O)c2cc(C(=O)N(C)c3ccc(OC)cc3OC)sc2c2ccccc21		11.2 µM [falling, single point]
O=C(N/N=C/c1ccc(N2CCOCC2)s1)c1ccccc1Br		5.62 µM [falling, full curve]
Oc1c(C=Nc2ccccc2Cl)[nH]c2ccccc12		14.1 µM [falling, single point]
O=C(N/N=C/C=C\c1ccccc1)c1cnccn1		2 µM [falling, full curve, poor fit]
CN1C(C(=O)Nc2ccccn2)=C(O)c2sccc2S1(=O)=O		35.5 µM [falling, single point]
COc1cc(OC)c(C(=O)Nc2ccccc2-c2ccccc2)cc1OC		29.1 µM [falling, single point]

Compound	AC50 [1]	AC50 [2]
CCOc1ccccc1C(=O)N[C@H](C(=O)OCc1csc(CC(=O)Nc2ccc(C)cc2)n1)C(C)C		29.1 µM [falling, single point]
COc1ccc(CNC(=O)C(c2ccco2)N(Cc2cccs2)C(=O)Cc2cccs2)cc1 (stereo not given)		0.82 µM [rising, full curve, poor fit]
COc1ccc(-c2[nH]ncc2N=Nc2cc(C)cc(C)c2)cc1		12.6 µM [rising, partial curve]
COc1ccc(C2=NN(C(=O)c3cccs3)C(O)(C(F)(F)F)C2)cc1 (stereo not given)		15.8 µM [falling, single point]
CCOC(=O)c1cccc(OC(=O)CCNC(=O)c2ccc(Cl)cc2)c1		25.9 µM [rising, single point]
O=C(CN1C(=O)S/C(=C/c2ccncc2)C1=O)N1CCOCC1		20.6 µM [falling, single point]
O=C(CC1NC(=O)NC1=O)Nc1ccc(Cl)cc1 (stereo not given)		20.6 µM [falling, partial curve, poor fit]
O=C(COC(=O)c1cc(S(=O)(=O)N2CCCC2)ccc1O)Nc1ccccc1Br		29.1 µM [rising, partial curve, poor fit]
COc1ccc(-c2nc(-c3ccccn3)no2)cc1		1.12 µM [falling, full curve]
COc1cc(SC)ccc1C(=O)Nc1c(Cl)cncc1Cl		35.5 µM [falling, single point]
Cc1cc(C(=O)Cn2cnc3cc(F)ccc3c2=O)c(C)n1C1CC1		9.2 µM [rising, partial curve]
Cc1nonc1C(=O)N/N=C/c1ccc(O)cc1		14.6 µM [falling, partial curve]
Cc1cc(N/N=C\c2ccccc2)nc(-c2ccccc2O)n1		13 µM [falling, partial curve, poor fit]
CCC1=C(OC(=O)N(CC)CC)N2C(=O)OC(=NCCc3c[nH]c4ccccc34)[C@]2(Cc2ccccc2)[C@H]2C1=CC[C@H]1C(=O)NC(=O)[C@H]12		20 µM [falling, partial curve, poor fit]
CC(C)c1cc(C(C)C)n2nc(N)nc2n1		0.794 µM [rising, full curve]
COC(=O)c1ccc(OCC(=O)NCCC2=CCCCC2)c(OC)c1		0.731 µM [rising, partial curve, poor fit]
CCN(CC)c1ccc(NC(=O)CSc2nc3nc(C)cc(C)c3c(=O)[nH]2)cc1		4.61 µM [falling, partial curve, poor fit]
COc1cccc(NC(=O)CN(C)C(=O)CSc2ccc3c(c2)OCCO3)c1		29.1 µM [falling, single point]
COc1ccc(NC(=O)N(C)C[C@H]2Oc3c(NC(=O)Nc4ccc(C(F)(F)F)cc4)cccc3C(=O)N([C@H](C)CO)C[C@@H]2C)cc1		18.4 µM [falling, single point]
Cc1cc(CNC(=O)COc2ccccc2F)c2ccccc2n1		31.6 µM [falling, single point]

Given as a markdown table: entries from further up.

| Compound | AC50 [1] | AC50 [2] |
| --- | --- | --- |
| N#CC(C#N)=C(Nc1ccc(F)cc1)SCc1cccc(F)c1 |  | 14.6 µM [falling, single point] |
| COc1ccccc1-n1c(SCC(=O)N2CCCCC2)nc(O)c(Cc2ccccc2)c1=O |  | 35.5 µM [falling, single point] |
| O=C(CCl)N1CCCC1c1ccc2c(c1)OCCO2 (stereo not given) |  | 35.5 µM [falling, partial curve, poor fit] |

An excerpt of these results, as a markdown table.

| Compound | AC50 [1] | AC50 [2] |
| --- | --- | --- |
| COc1ccc(-c2[nH]ncc2N=Nc2cc(C)cc(C)c2)cc1 |  | 12.6 µM [rising, partial curve] |
| O=C(CC1NC(=O)NC1=O)Nc1ccc(Cl)cc1 (stereo not given) |  | 20.6 µM [falling, partial curve, poor fit] |
